Assay results

Source: PubChem BioAssay AID1159506 (NCATS, 2015).

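Genome-wide siRNA knockdown in TC32 Ewing sarcoma cells, comparing luciferase light from an NR0B1-promoter reporter with a CMV-promoter reporter 48 hours after transfection.
Each siRNA was applied at 20 nM.
A z-score of the log NR0B1-over-CMV signal, less the median of siRNAs with the same seed; more negative means a stronger specific loss of the NR0B1 reporter.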

This is part of the screen; most of the strongest results are not listed here.
Sequences are the guide (antisense) strand, without overhang.

| siRNA | gene | seed-corrected z-score |
|---|---|---|
| `UCAAUAUGCAGGAGGAUCU` | CYP4F2 | -0.4215 |
| `UGUCGAAAUACAGGUAAGG` | TMEM101 | -0.2695 |
| `UAAUGCUCCUGAGUGUAGC` | METTL21C | 0.201 |
| `AACAUGCUAGAUUCGUUGC` | HORMAD1 | -1.589 |
| `UUUAGUUGGAUCACUCUUG` | PCDHA12 | 0.1645 |
| `AAAGCAUUGCUGGACAUUG` | SCGB2B2 | -0.007683 |
| `UGCAAAUCCAUUCCCAUCC` | LINC00636 | 0.1383 |
| `AAAGUAACUAAGGUAUAAC` | FUT9 | 0.3243 |
| `ACGUGUAUGACUGUGAGCG` | SLC39A7 | 0.1925 |
| `UGUCUUGUGAGUCAAAUCU` | CCDC61 | -0.5416 |
| `AGGUGAUCCAGAUAGAUGC` | WDR19 | -0.08143 |
| `UUGGAAUCAAAAACCUUCC` | REC114 | 0.2125 |
| `AUGGGUACACCUGAAAGAC` | GATA1 | -0.7466 |
| `UACUGGUUACUGUAGACUC` | ATF7IP2 | -0.7505 |
| `UCAUCUGCGGGAAAGUCCG` | ANHX | -0.533 |
| `UAAACGGAAGGAUCUGUGC` | CUL4A | 0.1017 |
| `UUCCGAUGCAGGAACAUCC` | FNDC3B | 0.68 |
| `UAAUAGUACAGGGACUUGC` | ANXA2 | 0.06133 |
| `AUCGAUUCCAGCUUUACAG` | GEMIN5 | -0.7507 |
| `UUCAGGACAGUGUUGUACC` | ALG12 | -0.2337 |
| `UAAGGCACACUCUCAAAUC` | LRIF1 | 0.8617 |
| `UACGUGUCGUACAGGAUCC` | GAMT | -0.006567 |
| `UUUCUGACACGUGAGAAUU` | GOLGA6L2 | -0.8892 |
| `AACACAAACAUAAGUGGCU` | GOLGA6L9 | -0.4825 |
| `UAAAGACGUAGAGAAUUGG` | FPR3 | -0.6542 |
| `UACGUGAAUGAAGCCCUCC` | FAM71F1 | -0.9517 |
| `UAAAGUGUGGUAUUAGUGG` | PRH2 | 0.3688 |
| `UUCGUAUGAUCUGAGCUGC` | MALRD1 | 0.1123 |
| `UUCUGAUCCUGGAUUCUCU` | CHIT1 | -0.01252 |
| `UCUGUAACUUUCAAUAUUC` | LRP12 | -0.4515 |
| `AAUUGGAUCAUACAUAUGA` | SPINK9 | 0.3988 |
| `UAUCUUUCCACUUGCCGUG` | SERPINA2 | 1.435 |
| `UAAGGUAAAAGACAUCAAU` | OR6C6 | -0.0002044 |
| `UCUGUUUCCCGGUAGAUUC` | CHRM5 | 1.203 |
| `UGGUGUUGAUGGGUGGUUG` | CSAG1 | 1.217 |
| `AUCCCAGAAAGAUUCGGCC` | FAM156A | 1.047 |
| `UGACAGACUAGCAGGCCCA` | TSPO | 0.2758 |
| `UAAGUUCUCAGGGUCGGUG` | MAN1B1 | 0.06235 |
| `UUGGUGAUCACAUAUCUCC` | SPECC1 | -0.606 |
| `UAGGAGAUAAGCAAUUGCC` | TMEM55A | 0.9878 |
| `UACCAUACAUUGACGAUAG` | EIF3I | 1.204 |
| `UGUGCUUAUAACCAUCUGC` | GLA | -0.5142 |
| `UGAUCUGCUAUAGUAGUCC` | TRA2B | -0.517 |
| `AGCUCUACAACCAAGUUCC` | SVIL | 0.4787 |
| `UUCCCUCUGUCUUUGAUCC` | TCEAL2 | -0.5276 |
| `AUUUUUACAAACAUGCAUC` | KCNJ6 | -0.8515 |
| `UAUUUUACACUGAUGUAUG` | TWSG1 | 1.084 |
| `UAAAGUAGUACACCAGCGG` | LPAR5 | -0.9977 |
| `UAGGUGUUCGAUCAGAUGC` | ZKSCAN5 | -0.8615 |
| `AAAGUAGAGGGUAGCAUAG` | AP3S2 | -0.1204 |

Some entries from above, unchanged:

{"sirna": "UAGGUGUUCGAUCAGAUGC", "gene": "ZKSCAN5", "seed-corrected z-score": "-0.8615"}
{"sirna": "UUCCCUCUGUCUUUGAUCC", "gene": "TCEAL2", "seed-corrected z-score": "-0.5276"}
{"sirna": "UUGGUGAUCACAUAUCUCC", "gene": "SPECC1", "seed-corrected z-score": "-0.606"}
{"sirna": "AAAGCAUUGCUGGACAUUG", "gene": "SCGB2B2", "seed-corrected z-score": "-0.007683"}
{"sirna": "UUGGAAUCAAAAACCUUCC", "gene": "REC114", "seed-corrected z-score": "0.2125"}